Some of these results come from one statement about several compounds together.
Legend:
[1] = tested on: mouse hepatocytes
[2] = Rate of reaction with acrolein in a protein-free system (HPLC of free acrolein); settings: 0.5 mM acrolein + 0.5 mM test compound, pH 7.0, 37° C., within 30 minutes

For NNc1nnc(NN)c2ccccc12 [dihydralazine], the “PC50 lower than those of the other nucleophilic amines” value [1] was “over 3 orders of magnitude” and the acrolein consumed [2] was “greater than 90%”.
